Reference: PubChem BioAssay AID493014 (National Center for Advancing Translational Sciences (NCATS), 2011)
Some of the results follow. Shown are side measurements of this screen, not its main read-out; they come without a call. Most of these compounds were active or inconclusive in the main read-out, so they are no random draw. Potencies come from curve fits of mixed quality, noted in brackets.

Test: qHTS Assay to Find Inhibitors of Chronic Active B-Cell Receptor Signaling
Conditions: ABC-DLBCL IkBa-CBG/CBR reporter, luminescence ratio (green luciferase fused to IkBa over red control in TMD8 lymphoma cells), 4 h
Method in brief: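 TMD8 ABC-DLBCL cells carrying doxycycline-inducible green luciferase fused to IkappaBalpha plus unfused red luciferase were exposed to compounds (up to 46 uM) for 4 hrs at 37C. Activity came from the overlap-corrected green/red luminescence ratio.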

[1] = measured here: CBR red luminescence, cell number
[2] = measured here: IkBa-CBG green luminescence

SMILES	AC50 [1]	AC50 [2]
COc1cc(OCC(=O)NC(C)C)cc2c1C(=O)O[C@@H](C)CCCC(=O)CCCCC2	11.2 µM [rising, single point]	
Cc1cccc(-c2nnc(-c3cccc(NC(=O)Cc4cccs4)c3)o2)c1	2.82 µM [rising, partial curve, poor fit]	
CCn1cc(CN2CCc3c([nH]c4ccccc34)C2c2cccc(OC)c2OC)c(C)n1 (configuration not stated)	10 µM [falling, partial curve, poor fit]	
Cc1cccc(-c2cc3c(N=O)c4ccccc4c-3n[nH]2)c1	1.78 µM [falling, full curve, poor fit]	
COc1ccc(/C=N\NC(=O)c2ccccc2Cl)cc1COc1c(F)c(F)c(F)c(F)c1F	3.55 µM [falling, partial curve, poor fit]	
Cc1cccc(/C=C/c2nc3ccccc3c(=O)[nH]2)c1		3.16 µM [rising, full curve, poor fit]
CCNc1ccc(S(=O)(=O)N(C)C)cc1NCC(=O)Nc1ccc(Br)cc1F	29.1 µM [falling, single point]	
CC[C@@]12C(=O)N(c3cccc(F)c3)C(=O)N1[C@H](c1ccc(F)cc1)[C@@H]1C(=O)N(C3CCCCC3)C(=O)[C@@H]12	10 µM [falling, partial curve]	
O=C(COc1ccc(Cl)cc1Cl)NCc1ccco1	1.41 µM [rising, full curve, poor fit]	
COc1ccc(CCN2C(=O)CSC2=Nc2ccc(C(C)C)cc2)cc1OC	35.5 µM [falling, single point]	
Cc1c(C(=O)N2CCC(C)CC2)sc2ncnc(N(C)c3ccccc3)c12	6.51 µM [rising, single point]	
CSc1ccccc1N=Cc1nc(-c2ccccc2)oc1O	20 µM [falling, partial curve, poor fit]	
Cc1cc(-c2nn(-c3ccccc3F)cc2CN(C)CC(O)CO)c(C)s1 (configuration not stated)	4.47 µM [rising, full curve]	
Cc1ccc(-n2ncc3c(NCC4CCCO4)ncnc32)c(C)c1 (configuration not stated)	4.11 µM [rising, full curve, poor fit]	
COc1ccc(-c2cc3cc(OC)c(OC)cc3c(C)n2)cc1	0.355 µM [rising, full curve, poor fit]	
COc1ccc(/C=N/NC(=O)c2ccn[nH]2)cc1CSc1ccccn1	11.2 µM [falling, partial curve, poor fit]	
O=C(NC1CCCCC1)C(c1ccncc1)N(Cc1ccccc1)C(=O)c1ccc(-c2ccccc2)[nH]1 (configuration not stated)	35.5 µM [falling, single point]	
Fc1ccccc1/C=N/NC(=S)Nc1ccc(Cl)cc1Cl	10.3 µM [rising, partial curve, poor fit]	
O=C(OCC1COc2ccccc2O1)c1ccccc1F (configuration not stated)	3.16 µM [rising, partial curve, poor fit]	
COCCNc1c(-c2ccc(OC)c(OC)c2)nc2ccc(Cl)cn12	3.55 µM [rising, single point]	
Cc1cc(=O)c2cc(Br)ccc2[nH]1	16.4 µM [falling, single point]	

SMILES	AC50 [1]	AC50 [2]
O=C(NN=C1CCCC1)c1cc(Cl)cc(Cl)c1O	2 µM [falling, full curve]	
CC(=O)N1c2ccc(S(=O)(=O)N3CCCCC3)cc2CC1C (configuration not stated)	5.62 µM [rising, full curve, poor fit]	
CCS(=O)(=O)N1CCN(c2ccccn2)CC1	29.1 µM [falling, single point]	
CC1=NN(C(N)=S)C(=O)C1N=Nc1cccc([N+](=O)[O-])c1 (configuration not stated)		0.631 µM [falling, full curve, poor fit]
O=C(O)CCCc1ccc2ccc3cccc4ccc1c2c34	1.26 µM [falling, full curve]	0.631 µM [rising, full curve]
Cc1cccc2c1ncc1c(=O)n(-c3ccccc3)[nH]c12	7.94 µM [falling, partial curve, poor fit]	
COc1ccc(/C=N/NC(=O)c2ccc3c(c2)OCO3)cc1	4.47 µM [falling, partial curve]	
Fc1ccc(/C=C2\CCCC3=C2Nc2ncnn2C3c2ccc(F)cc2)cc1 (configuration not stated)	6.31 µM [falling, partial curve]	
O=C(OCc1ccc(O)cc1)c1c(-c2ccsc2)oc2ccc(N3CCOCC3)cc12	3.55 µM [falling, full curve]	
O=C(OCC(=O)N1CCCC1)c1cncc(Br)c1	0.731 µM [rising, full curve, poor fit]	
CCN(CC)CCCOC(=O)C(c1ccccc1)c1ccccc1	4.47 µM [falling, partial curve, poor fit]	
COc1ccc(/C=C/C(=O)OCC(=O)c2c(C)[nH]c3ccccc23)cc1OC	10.3 µM [rising, partial curve, poor fit]	
COc1ccc(OC)c(S(=O)(=O)N2CCCCC2C(=O)O)c1 (configuration not stated)	6.51 µM [falling, single point]	
O=c1c2ccccc2n2c(=S)[nH]nc2n1-c1ccccc1	20 µM [rising, partial curve, poor fit]	
CCn1ncc(/C=C/C(=O)Nc2c(C)nn(Cc3ccc(Cl)cc3Cl)c2C)c1C	35.5 µM [falling, single point]	
CCC(Sc1nc2c(sc3ccccc32)c(=O)n1CCc1ccc(OC)c(OC)c1)C(=O)N(CC)CC (configuration not stated)	5.01 µM [falling, full curve]	
COc1ccc(NC(=O)CSc2nnc(Cn3nnc4ccccc43)n2C)cc1	6.51 µM [falling, single point]	
O=c1nc(-c2ccccc2)cn[nH]1	12.6 µM [falling, partial curve, poor fit]	
O=C(NC1CCCCC1)c1ccc2c(c1)OCCO2	6.31 µM [falling, partial curve, poor fit]	
CC[C@]12c3[nH]c4ccc(Cl)cc4c3CCN1C(=O)[C@@H](CC(=O)NCCc1ccccn1)C[C@@H]2C(=O)N1CCN(C(=O)C2CC2)CC1	25.9 µM [rising, single point]	

9 of the compounds above, in markdown:

| SMILES | AC50 [1] | AC50 [2] |
| --- | --- | --- |
| O=C(NN=C1CCCC1)c1cc(Cl)cc(Cl)c1O | 2 µM [falling, full curve] |  |
| CC(=O)N1c2ccc(S(=O)(=O)N3CCCCC3)cc2CC1C (configuration not stated) | 5.62 µM [rising, full curve, poor fit] |  |
| Cc1cccc2c1ncc1c(=O)n(-c3ccccc3)[nH]c12 | 7.94 µM [falling, partial curve, poor fit] |  |
| O=C(OCC(=O)N1CCCC1)c1cncc(Br)c1 | 0.731 µM [rising, full curve, poor fit] |  |
| CCN(CC)CCCOC(=O)C(c1ccccc1)c1ccccc1 | 4.47 µM [falling, partial curve, poor fit] |  |
| COc1ccc(/C=C/C(=O)OCC(=O)c2c(C)[nH]c3ccccc23)cc1OC | 10.3 µM [rising, partial curve, poor fit] |  |
| CCC(Sc1nc2c(sc3ccccc32)c(=O)n1CCc1ccc(OC)c(OC)c1)C(=O)N(CC)CC (configuration not stated) | 5.01 µM [falling, full curve] |  |
| O=c1nc(-c2ccccc2)cn[nH]1 | 12.6 µM [falling, partial curve, poor fit] |  |
| CC[C@]12c3[nH]c4ccc(Cl)cc4c3CCN1C(=O)[C@@H](CC(=O)NCCc1ccccn1)C[C@@H]2C(=O)N1CCN(C(=O)C2CC2)CC1 | 25.9 µM [rising, single point] |  |
